# Source: the supplement of paper PMC8728848
# The other results are listed elsewhere or left out.
# B1: Clec12b (Mus musculus), Q149M0 (protein)
# chain: MSDEVTYATLMLQDSARVRGNQDGNNLRKEGHPAQSSLWRGAALSLMTLCLVLVTGLVTLATMFLQVSNDINSDSEKLSQLQKSIHPQQDNLSESLNSSRKSLTEESLQSQISALLERQEQMATKLCKEFLIHASDHKCNPCPKTWQWYGNSCYYFSINEEKSWSDSRKDCIDKNATLVKIDSTEERDLLQSQLSLTFSFFWLGLSWNSSGRNWLWEDGSFPPPTLFSDKELASFNGSRDCAYFERGNIYASRCSAEIPWICEKTASLVKTEDLD
# What was measured:
# Experiment in all cases: glycan array binding signal (z-score within array); higher = stronger binding
# Details in all cases: glycan notation: IUPAC condensed, linker removed
# [1] = target: Gal(b1-4)GlcNAc(b1-2)Man(a1-6)[GlcNAc(b1-2)Man(a1-3)]Man(b1-4)GlcNAc(b1-4)GlcNAc
# Summary of the method: (§1)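 Negative Z-scores can be read as non-binding. The Z-score is calculated within each array and then averaged across arrays of one protein sequence at different concentrations or buffers and across linkers. Arrays, 3228 in all, were curated from the Consortium for Functional Glycomics database and kept only where the protein sequence was available.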
# [2] = target: Gal(b1-4)GlcNAc(b1-2)Man(a1-6)[Man(a1-3)]Man(b1-4)GlcNAc(b1-4)GlcNAc
# Summary of the method: as §1
# [3] = target: Gal(b1-4)GlcNAc(b1-2)[Gal(b1-4)GlcNAc(b1-4)]Man(a1-3)[Gal(b1-4)GlcNAc(b1-2)Man(a1-6)]Man(b1-4)GlcNAc(b1-4)GlcNAc
# Summary of the method: as §1
# [4] = target: Gal(b1-4)GlcNAc(b1-2)[Gal(b1-4)GlcNAc(b1-4)]Man(a1-3)[Gal(b1-4)GlcNAc(b1-2)[Gal(b1-4)GlcNAc(b1-6)]Man(a1-6)]Man(b1-4)GlcNAc(b1-4)GlcNAc
# Summary of the method: as §1
# [5] = target: Gal(b1-4)GlcNAc(b1-2)[Gal(b1-4)GlcNAc(b1-4)]Man(a1-3)[GlcNAc(b1-4)][Gal(b1-4)GlcNAc(b1-2)Man(a1-6)]Man(b1-4)GlcNAc(b1-4)GlcNAc
# Summary of the method: as §1
# [6] = target: Gal(b1-4)GlcNAc(b1-2)[Gal(b1-4)GlcNAc(b1-4)]Man(a1-3)[GlcNAc(b1-4)][Gal(b1-4)GlcNAc(b1-2)[Gal(b1-4)GlcNAc(b1-6)]Man(a1-6)]Man(b1-4)GlcNAc(b1-4)GlcNAc
# Summary of the method: as §1
# [7] = target: Gal(b1-4)GlcNAc(b1-2)[Gal(b1-4)GlcNAc(b1-6)]Man(a1-6)[Gal(b1-4)GlcNAc(b1-2)Man(a1-3)]Man(b1-4)GlcNAc(b1-4)GlcNAc
# Summary of the method: as §1
# [8] = target: Gal(b1-4)GlcNAc(b1-2)[Gal(b1-4)GlcNAc(b1-6)]Man(a1-6)[Gal(b1-4)GlcNAc(b1-2)Man(a1-3)]Man(b1-4)GlcNAc(b1-4)[Fuc(a1-6)]GlcNAc
# Summary of the method: as §1
# [9] = target: Gal(b1-4)GlcNAc(b1-2)[Gal(b1-4)GlcNAc(b1-6)]Man(a1-6)[GlcNAc(b1-4)][Gal(b1-4)GlcNAc(b1-2)Man(a1-3)]Man(b1-4)GlcNAc(b1-4)GlcNAc
# Summary of the method: as §1
# [10] = target: Gal(b1-4)GlcNAc(b1-2)[Gal(b1-4)GlcNAc(b1-6)]Man(a1-6)[GlcNAc(b1-4)][Gal(b1-4)GlcNAc(b1-2)[Gal(b1-4)GlcNAc(b1-4)]Man(a1-3)]Man(b1-4)GlcNAc(b1-4)[Fuc(a1-6)]GlcNAc
# Summary of the method: as §1
# [11] = target: Gal(b1-4)GlcNAc(b1-3)Gal(b1-3)GalNAc
# Summary of the method: as §1
# [12] = target: Gal(b1-4)GlcNAc(b1-3)Gal(b1-3)GlcNAc
# Summary of the method: as §1
# [13] = target: Gal(b1-4)GlcNAc(b1-3)Gal(b1-4)Glc
# Summary of the method: as §1
# [14] = target: Gal(b1-4)GlcNAc(b1-3)Gal(b1-4)GlcNAc
# Summary of the method: as §1
# [15] = target: Gal(b1-4)GlcNAc(b1-3)Gal(b1-4)GlcNAc(b1-2)Man(a1-3)[Gal(b1-4)GlcNAc(b1-3)Gal(b1-4)GlcNAc(b1-2)Man(a1-6)]Man(b1-4)GlcNAc(b1-4)GlcNAc
# Summary of the method: as §1
# [16] = target: Gal(b1-4)GlcNAc(b1-3)Gal(b1-4)GlcNAc(b1-2)Man(a1-3)[Gal(b1-4)GlcNAc(b1-3)Gal(b1-4)GlcNAc(b1-2)Man(a1-6)]Man(b1-4)GlcNAc(b1-4)[Fuc(a1-6)]GlcNAc
# Summary of the method: as §1
# [17] = target: Gal(b1-4)GlcNAc(b1-3)Gal(b1-4)GlcNAc(b1-2)[Gal(b1-4)GlcNAc(b1-3)Gal(b1-4)GlcNAc(b1-6)]Man(a1-6)[Gal(b1-4)GlcNAc(b1-3)Gal(b1-4)GlcNAc(b1-2)Man(a1-3)]Man(b1-4)GlcNAc(b1-4)GlcNAc
# Summary of the method: as §1
# [18] = target: Gal(b1-4)GlcNAc(b1-3)Gal(b1-4)GlcNAc(b1-2)[Gal(b1-4)GlcNAc(b1-3)Gal(b1-4)GlcNAc(b1-6)]Man(a1-6)[Gal(b1-4)GlcNAc(b1-3)Gal(b1-4)GlcNAc(b1-2)Man(a1-3)]Man(b1-4)GlcNAc(b1-4)[Fuc(a1-6)]GlcNAc
# Summary of the method: as §1
binder,measurement,setting,value
B1,glycan array binding signal (z-score),[1],0.017
same,glycan array binding signal (z-score),[2],-0.446
same,glycan array binding signal (z-score),[3],-0.64
same,glycan array binding signal (z-score),[4],0.114
same,glycan array binding signal (z-score),[5],-0.111
same,glycan array binding signal (z-score),[6],0.816
same,glycan array binding signal (z-score),[7],0.531
same,glycan array binding signal (z-score),[8],0.226
same,glycan array binding signal (z-score),[9],-0.128
same,glycan array binding signal (z-score),[10],1.61
same,glycan array binding signal (z-score),[11],-0.206
same,glycan array binding signal (z-score),[12],-0.518
same,glycan array binding signal (z-score),[13],-0.432
same,glycan array binding signal (z-score),[14],-0.15
same,glycan array binding signal (z-score),[15],0.387
same,glycan array binding signal (z-score),[16],-0.154
same,glycan array binding signal (z-score),[17],0.532
same,glycan array binding signal (z-score),[18],0.612

# A second format for some results above.
binder	measurement	setting	value
B1	glycan array binding signal (z-score)	[9]	-0.128
same	glycan array binding signal (z-score)	[12]	-0.518
same	glycan array binding signal (z-score)	[15]	0.387
